Reference: US4098706A, “Lubricating agents for thermoplastic materials and process for preparing the same” (Sapchim-Fournier-Cimag, priority 1975, dated 1978)

How the values were obtained:
[1] = Dynamic thermostability of the resin on plastograph at 210° C, 60 r.p.m., 30 g; details: for Minimal resistant torque: as internal lubricating agent, 1 part, 210° C
[2] = Gelation of resin on plastograph at 150° C, 30 r.p.m., 25 g
[3] = Sticking of the lubricated resin, mixer cylinders 210° C, 0.25 mm
[4] = as external lubricating agent, 0.3 part, 150° C
[5] = as internal lubricating agent, 1 part, 150° C
[6] = as external lubricating agent, 0.3 part, 210° C, 0.25mm
[7] = as internal lubricating agent, 1 part, 210° C, 0.25 mm

Row | Compound | Minimal resistant torque [1] | End of gelation [2, 4] | Start of gelation [2, 4] | End of gelation [2, 5] | Start of gelation [2, 5] | Resistance time to sticking [3, 6] | Resistance time to sticking [3, 7] | End of gelation [2] | Resistance time to sticking [3] | Sticking, observation [3, 7] | Time of the observed blackening or sticking and decomposition [3, 7] | End of gelation ([2]; study E(a), 0.5 part, 150° C) | Start of gelation ([2]; study E(a), 0.5 part, 150° C) | Resistance time to sticking ([3]; study E(a), 0.5 part, 210° C, 0.25mm) | Start of gelation [2] | Self-heating time [1]
1 | CCCCCCCCCCCCCCCCCCCCCC(=O)OCC(C)OC(=O)CCCCCCCCCCCCCCCCCCCCC (centres unmarked) [Compound 1, 1,2-propanediol dibehenate] | 1.060 m.kg | 210 s | 50 s | 260 s | 120 s | 16 min | 21.5 min |  |  |  |  |  |  |  |  | 
2 | CCCCCCCCCCCCCCCCCCCCCC(=O)OCCSCCOC(=O)CCCCCCCCCCCCCCCCCCCCC [Compound 2, Thiodiglycol dibehenate] | 1.070 m.kg |  |  |  |  |  |  | 180 s and 260 s | 21 and 20 |  |  |  |  |  |  | 
3 | CCCCCCCCCCCCCCCCCCCCCC(=O)OCCOCCOC(=O)CCCCCCCCCCCCCCCCCCCCC [Compound 3, Diethyleneglycol dibehenate] | 1.050 m.kg |  |  | 270 s | 120 s |  | 22 min |  |  |  |  |  |  |  |  | 
4 | CCCCCCCCCCCCCCCCCCCCCC(=O)OCCOCCOCCOC(=O)CCCCCCCCCCCCCCCCCCCCC [Compound 4, Triethyleneglycol dibehenate] | 1.070 m.kg |  |  | 265 s | 105 s |  | 23 min |  |  |  |  |  |  |  |  | 
5 | CCCCCCCCCCCCCCCCCCCCCC(=O)OCC(CC)(COC(=O)CCCCCCCCCCCCCCCCCCCCC)COC(=O)CCCCCCCCCCCCCCCCCCCCC [Compound 5, Trimethylolpropane tribehenate] | 1.060 m.kg | 190 s | 45 s | 380 s | 180 s | 15.5 min | 27 min |  |  | stuck and decomposed | 27 min |  |  |  |  | 
6 | CCCCCCCCCCCCCCCCCCCCCC(=O)OCCCCOC(=O)CCCCCCCCCCCCCCCCCCCCC [Compound 7, 1,4-butanediol dibehenate] | 1.070 m.kg | 210 s | 45 s | 255 s | 120 s | 17 min | 23 min |  |  |  |  |  |  |  |  | 
7 | CCCCCCCCCCCCCCCCCCCCCC(=O)OCC(COC(=O)CCCCCCCCCCCCCCCCCCCCC)OC(=O)CCCCCCCCCCCCCCCCCCCCC [Compound 8, Glyceryl tribehenate] | 1.065 m.kg | 210 s | 50 s | 380 s | 180 s | 13 min | 26 min |  |  | did not stick but the resin became black | 26 min | 90 s | 20 s | 11 min |  | 
8 | CCCCCCCCCCCCCCCCCCCCCC(=O)OCC(COC(=O)CCCCCCCCCCCCCCCCCCCCC)(COC(=O)CCCCCCCCCCCCCCCCCCCCC)COC(=O)CCCCCCCCCCCCCCCCCCCCC [Compound 9, Pentaerythrite tetrabehenate] | 1.065 m.kg | 200 s | 40 s | 585 s | 360 s | 19 min | 26 min |  |  | stuck and decomposed | 26 min |  |  |  |  | 
9 | CCCCCCCCCCCCCCCCCCCCCC(=O)O [calcium behenate] |  |  |  |  |  |  |  | 90 s | 15.5 min |  |  |  |  |  | 15 s | 
10 | CCCCCCCCCCCCCCCCCC(=O)O [calcium stearate, reference compound] |  |  |  |  |  |  |  | 70 s | 15.5 min |  |  |  |  |  | 10 s | 
11 | glyceryl trihydroxystearate [reference compound] |  |  |  |  |  |  |  |  |  |  |  |  |  |  |  | 14 min

Several values for one entry are separate records, joined by “and”; a condition that tells them apart may be missing. Identical values can stand only once. Like-named read-outs stand apart in the source and are kept apart here.
